Experimental data: US20230312651A1, “Cyclic Peptide, Peptide Complex, and Drug Composition Containing Said Cyclic Peptide and/or Said Peptide Complex” (The University of Tokyo, priority 2020, published 2023)
At least one peptide structure holds a part that was inferred or is arguable (an end, a ring closure or a residue). For at least one compound, name, drawing or mass did not settle the structure. Positions of bridges follow the written chain, without caps; N, C: chain ends. Residues, ends and D or L forms follow the SMILES beside them.

The chains behind the UniProt entries cited, without tags or fusion partners. Residues count along the entry.
UniProt Q16620, 32-430 limits assumed: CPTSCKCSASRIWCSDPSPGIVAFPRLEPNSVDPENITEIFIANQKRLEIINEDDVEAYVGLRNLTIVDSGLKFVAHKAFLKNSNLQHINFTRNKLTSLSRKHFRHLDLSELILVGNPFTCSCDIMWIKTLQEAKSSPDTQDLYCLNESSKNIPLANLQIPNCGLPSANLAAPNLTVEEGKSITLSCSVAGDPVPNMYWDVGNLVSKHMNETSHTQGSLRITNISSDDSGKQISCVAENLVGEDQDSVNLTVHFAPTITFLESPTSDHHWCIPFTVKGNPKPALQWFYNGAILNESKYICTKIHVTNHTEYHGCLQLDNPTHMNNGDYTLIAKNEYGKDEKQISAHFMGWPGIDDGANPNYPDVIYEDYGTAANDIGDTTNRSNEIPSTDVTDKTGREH

Molecular target: T1, human TrkB (hTrkB) extracellular domain (Homo sapiens, UniProt Q16620)
T1 construct: using the beads having a 200 nM TrkB extracellular domain fixed thereto
Assay: RaPID affinity selection of cyclic peptides binding to hTrkB (abundance after 5 rounds)
Details: L-library; percent of the peptide in the total L-peptide obtained by the affinity selection

CC(C)C[C@@H]1NC(=O)[C@H](CCCNC(=N)N)NC(=O)[C@H](Cc2ccccc2)NC(=O)[C@H](CCCNC(=N)N)NC(=O)[C@@H]2CCCN2C(=O)[C@H]([C@@H](C)O)NC(=O)[C@H](CCC(N)=O)NC(=O)[C@H](Cc2c[nH]c3ccccc23)NC(=O)[C@H](Cc2ccccc2)NC(=O)[C@H](CCCNC(=N)N)NC(=O)[C@H](Cc2ccc(O)cc2)NC(=O)CSC[C@@H](C(=O)NCC(=O)N[C@@H](CO)C(=O)NCC(=O)N[C@@H](CO)C(=O)NCC(=O)N[C@@H](CO)C(N)=O)NC1=O [TrbL2] ({CH2CO}-YRFWQTPRFRLCGSGSGS-NH2; thioether N-12)
Abundance (%): 15%
